For the experiment, the system named is HCoV-OC43. The arrangement: species or system RD; HTS, protection from HCoV-OC43 induced cell death, luminescent cell viability (CellCounting-Lite 2.0), inhibition rate. As to conditions: 24 h post infection, 1 h compound pre-incubation, 10 µM, inhibitor.

Where a name gives a salt, the structure may show the parent alone. Read-outs that look alike come from different tables or passages of the source. The whole screen tested about 3,300 compounds, of which about 60 (2%) showed an effect of 50% or more. The list shows a part of the results. Numbered stars: 1 amine (or outer) side, 2 acyl side, 3 side chain; on linkers, the order of the positions; unused ones are H or OH. Bridge positions count the residues as written; N and C are the ends. Square brackets hold non-standard residues; d marks the D form. Peptide text beside a SMILES is read from it. * marks the point of attachment. hTyr(3S-OH,4S-OH,3'-OSO3H) = N[C@H](C(=O)O)[C@H](O)[C@@H](O)c1ccc(O)c(OS(=O)(=O)O)c1; Orn(4R-OH,5R-OH) = O=C([C@H](C[C@@H](O)[C@@H](O)N[*:3])N[*:1])[*:2]; NMePhe(4-NMe2) = CN[C@@H](Cc1ccc(N(C)C)cc1)C(=O)O; Pro(3S-OH,4S-Me) = C[C@H]1CN[C@H](C(=O)O)[C@H]1O; Gln(3R-OH) = NC(=O)C[C@@H](O)[C@H](N)C(=O)O; Pip(4-oxo) = O=C1CCN[C@H](C(=O)O)C1; Picolinoyl(3-OH) = O=C(c1ncccc1O)*; Hyp = O=C(O)[C@@H]1C[C@@H](O)CN1; Phg = N[C@H](C(=O)O)c1ccccc1; dAbu = CC[C@@H](N)C(=O)O

The source of these data is publication PMC12431657, “Discovery and mechanistic insights of dibenzoylmethane as a broad spectrum inhibitor of coronavirus” (PLOS Pathogens, 2025).

For the compound `O=c1c(O[C@@H]2O[C@H](CO)[C@@H](O)[C@H](O)[C@H]2O)c(-c2ccc(O)c(O)c2)oc2cc(O)cc(O)c12` [Isoquercitrin], the “OC43 Inhibition rate” value (OC43 Inhibition rate, 24 h) worked out at 0.1%.
Turning to `C=C1CC[C@H]2C[C@@H]1C2(C)C` [β-Pinene], the “OC43 Inhibition rate” value was 0%.
As for `C[C@@H](O)[C@@H]1NC(=O)[C@@H](N)C[C@@H](O)[C@@H](O)NC(=O)[C@@H]2[C@@H](O)[C@@H](C)CN2C(=O)[C@H]([C@H](O)CC(N)=O)NC(=O)[C@H]([C@H](O)[C@@H](O)c2ccc(O)c(OS(=O)(=O)O)c2)NC(=O)[C@@H]2C[C@@H](O)CN2C1=O` [FR179642] (H-[Orn(4R-OH,5R-OH)]T[Hyp][hTyr(3S-OH,4S-OH,3'-OSO3H)][Gln(3R-OH)][Pro(3S-OH,4S-Me)]; lactam 1-C), the “OC43 Inhibition rate” value turned out to be 4.7%.
The same measure, in the same setting: for `C[C@@H]1O[C@@H](OC[C@H]2O[C@@H](Oc3c(-c4ccc(OCCO)c(OCCO)c4)oc4cc(OCCO)cc(O)c4c3=O)[C@H](O)[C@@H](O)[C@@H]2O)[C@H](O)[C@H](O)[C@H]1O` [Troxerutin] the value was -0.2%.
Regarding `Nc1nc(N)nc(NC2CC2)n1` [Cyromazine], the “OC43 Inhibition rate” value came out at 0%.
In the case of `COc1cc(-c2cc(=O)c3c(O)cc(O[C@@H]4O[C@H](CO)[C@@H](O)[C@H](O)[C@H]4O[C@@H]4OC[C@](O)(CO)[C@H]4O)cc3o2)ccc1O` [3'-Methoxyapiin], the “OC43 Inhibition rate” value is on record as 0.1%.
On the same count and under the same terms, the figure for `O=C(O)C(=O)Cc1ccc(O)cc1` [4-Hydroxyphenylpyruvic acid] is 0.9%; for `CCC(C)C(=O)O[C@@H]1[C@@H](OC(C)=O)[C@]2(C)[C@H](C(C)=O)CC[C@@]23O[C@]32CC[C@H]3C[C@@H](O[C@H]4C[C@@H](OC)[C@H](O[C@@H]5O[C@H](C)[C@@H](O)[C@@H](OC)[C@H]5O)[C@@H](C)O4)CC[C@]3(C)[C@@H]12` (some centres unmarked) [Tenacissoside H] it is 1.3%.
On the same count and under the same terms, the figure for `C[C@]12C=CC(=O)C=C1CC[C@H]1[C@@H]3C[C@@H](O)[C@](O)(C(=O)CO)[C@@]3(C)C[C@H](O)[C@@]12F` [Triamcinolone] is 0%; for `C=C1CC[C@@]2(OC1)O[C@H]1C[C@H]3[C@@H]4CC=C5C[C@@H](O)C[C@@H](O)[C@]5(C)[C@H]4CC[C@]3(C)[C@H]1[C@@H]2C` [Neoruscogenin] it is 7.4%; for `CCC/C=C\C=C\CCCCCCCCCO` [Bombykol] it is 1.1%.
The same measure, in the same setting: for `COc1ccc2c(c1)OC(O)C(=O)N2O` (centres unmarked) [DIMBOA] the value was -0.2%; for `COc1c(O)cc2oc(-c3ccc(O)cc3)cc(=O)c2c1O` [Hispidulin], -0.2%.
As for `O=C(O)CC(O)(CC(=O)O)C(=O)O` [Lithium citrate (tetrahydrate)], the “OC43 Inhibition rate” value (OC43 Inhibition rate, 24 h) was 0.2%.
Take `O=C1O[C@H]([C@@H](O)CO)C(=O)C1=O` [Dehydroascorbic acid]: the “OC43 Inhibition rate” value is 2.7%.
On the same count and under the same terms, the figure for `CC(=O)N[C@@H](CCCN=C(N)N)C(=O)O` [N-Acetyl-L-arginine] is -0.3%.
The same measure, in the same setting: for `CCCCCCCC/C=C\CCCCCCCC(=O)NCc1ccccc1` [N-Benzyloleamide] the value was 56.9%.
Consider `Cc1ncc(CO)c(CN)c1O` [Pyridoxylamine], for which the “OC43 Inhibition rate” value (OC43 Inhibition rate, 24 h) is reported as -0.8%.
With `COc1cc(C2Oc3cc([C@H]4Oc5cc(O)cc(O)c5C(=O)[C@@H]4O)ccc3OC2CO)ccc1O` (some centres unmarked) [Silybin], the “OC43 Inhibition rate” value is 3.3%.
The same measure, in the same setting: for `O=c1cc(-c2ccccc2)oc2cc(O)c(O)c(O)c12` [Baicalein] the value was 0.3%.
With `C[C@H](CCC(=O)O)[C@H]1CC[C@H]2[C@@H]3[C@H](O)C[C@H]4C[C@H](O)CC[C@]4(C)[C@H]3C[C@H](O)[C@]12C` [Allocholic acid], the “OC43 Inhibition rate” value is recorded as -0.1%.
Take `C=C1C[C@]2(O)O[C@@]3(CC2=C(C)C)[C@@H](C)CC[C@@H]13` [Isocurcumenol]: the “OC43 Inhibition rate” value is recorded as -0.2%.
On the same count and under the same terms, the figure for `C[C@H]1CC[C@]2(C(=O)O)CC[C@]3(C)C(=CC[C@@H]4[C@@]5(C)CC[C@H](O[C@@H]6OC[C@@H](O)[C@H](O)[C@H]6O[C@@H]6O[C@H](CO)[C@@H](O)[C@H](O)[C@H]6O)C(C)(C)[C@@H]5CC[C@]43C)[C@@H]2[C@]1(C)O` [Ilexoside D] is 5.3%; for `CCCC(=O)OC(CC(=O)[O-])C[N+](C)(C)C` (centres unmarked) [Butyrylcarnitine] it is -8.1%; for `Cc1ccccc1C(=O)O` [o-Toluic acid] it is 0.4%.
Same read-out and setting: for `COc1cc2oc(-c3ccccc3)cc(=O)c2c(O)c1OC` [Mosloflavone] the value was 5.1%.
With `C[C@@H]1O[C@@H](O[C@H]2[C@H](OC(=O)[C@]34CCC(C)(C)C[C@H]3C3=CC[C@@H]5[C@@]6(C)C[C@H](O)[C@H](O[C@@H]7O[C@H](CO)[C@@H](O)[C@H](O)[C@H]7O)[C@@](C)(CO)[C@@H]6CC[C@@]5(C)[C@]3(C)C[C@H]4O)OC[C@H](O)[C@@H]2O)[C@H](O)[C@H](O)[C@H]1O[C@@H]1OC[C@@H](O)[C@H](O[C@@H]2OC[C@](O)(CO)[C@H]2O)[C@H]1O` [Polygalacin D], the “OC43 Inhibition rate” value is on record as 36.7%.
Still for that read-out and setting: the figure for `CC(=O)N[C@@H](CS)C(=O)O` [Acetylcysteine] is -0.2%; for `C=C[C@@H]1C2=CCOC(=O)C2=CO[C@H]1O[C@@H]1O[C@H](CO[C@@H]2O[C@H](CO)[C@@H](O)[C@H](O)[C@H]2O)[C@@H](O)[C@H](O)[C@H]1O` [6'-O-beta-D-Glucosylgentiopicroside] it is -1.2%.
Same read-out and setting: for `COc1ccc(C)cc1` [4-Methylanisole] the value was -0.2%.
Same read-out and setting: the figure for `O=C1CCC[C@@H]2[C@H]3CCC[N+]4([O-])CCC[C@@H](CN12)[C@@H]34` (some centres unmarked) [Oxymatrine] is -0.6%.
Regarding `OC[C@H]1OC[C@H](O)[C@@H](O)[C@@H]1O` [1,5-Anhydrosorbitol], the “OC43 Inhibition rate” value was found to be 0.3%.
Same read-out and setting: for `CC(C)C[C@H](N)C(=O)N[C@@H](C)C(=O)O` [L-Leucyl-L-alanine] (H-Leu-Ala-OH) the value was -3.3%.
As to `COc1ccc2c3c1O[C@H]1C[C@@H](O)C=C[C@@]31CCN(C)C2` [Galanthamine (hydrobromide)], the “OC43 Inhibition rate” value (OC43 Inhibition rate, 24 h) is 0.7%.
As for `O=c1c(O[C@@H]2OC[C@H](O)[C@H](O)[C@H]2O)c(-c2ccc(O)c(O)c2)oc2cc(O)cc(O)c12` [Guaijaverin], the “OC43 Inhibition rate” value amounted to 0.3%.
Consider `CCO[C@H]1O[C@@H]2O[C@@]3(C)CC[C@H]4[C@H](C)CC[C@@H]([C@H]1C)[C@@]24OO3` [Artemotil], for which the “OC43 Inhibition rate” value is given as -3%.
On the same count and under the same terms, the figure for `CC[C@H](C)C(=O)O[C@H]1C[C@@H](C)C=C2C=C[C@H](C)[C@H](CC[C@@H]3C[C@@H](O)CC(=O)O3)[C@H]21` [Lovastatin] is 5.2%.
Same read-out and setting: for `C=CC(C)(CCC=C(C)C)OC(C)=O` (centres unmarked) [Linalyl acetate] the value was 0.2%; for `CC(C)CCC1(O)O[C@H]2[C@H](O)[C@H]3[C@@H]4CC[C@@H]5C[C@@H](O[C@@H]6O[C@H](CO)[C@H](O)[C@H](O)[C@H]6O[C@@H]6O[C@H](CO)[C@@H](O)[C@H](O)[C@H]6O)CC[C@]5(C)[C@H]4CC[C@]3(C)[C@H]2[C@@H]1C` (some centres unmarked) [Anemarrhenasaponin I], -0.4%; for `COC(=O)c1ccccc1C(=O)OC` [Dimethyl phthalate], 0.5%.
The same measure, in the same setting: the figure for `CC[C@H]1NC(=O)[C@@H](NC(=O)c2ncccc2O)[C@@H](C)OC(=O)[C@H](c2ccccc2)NC(=O)[C@@H]2CC(=O)CCN2C(=O)[C@H](Cc2ccc(N(C)C)cc2)N(C)C(=O)[C@@H]2CCCN2C1=O` [Pristinamycin IA] ({Picolinoyl(3-OH)}-T[dAbu]P[NMePhe(4-NMe2)][Pip(4-oxo)][Phg]; ester 1-C) is 1.7%; for `C[C@H](CC[C@@H](O[C@@H]1O[C@H](CO[C@@H]2O[C@H](CO)[C@@H](O)[C@H](O)[C@H]2O)[C@@H](O)[C@H](O)[C@H]1O)C(C)(C)O)[C@H]1CC[C@@]2(C)[C@@H]3CC=C4[C@@H](CC[C@H](O[C@@H]5O[C@H](CO[C@@H]6O[C@H](CO)[C@@H](O)[C@H](O)[C@H]6O)[C@@H](O)[C@H](O)[C@H]5O)C4(C)C)[C@]3(C)[C@H](O)C[C@]12C` [Mogroside IV-A] it is -0.2%.
In the case of `C=C(C)[C@@H]1CC=C(/C=N/O)CC1` [Perillartine], the “OC43 Inhibition rate” value amounted to 5.5%.
For `CCn1cnc2c(N)ncnc21` [9-Ethyladenine], the “OC43 Inhibition rate” value is given as -1%.
Consider `Oc1nc(O)c2cn[nH]c2n1` [Oxypurinol], for which the “OC43 Inhibition rate” value was -0.3%.
Consider `N[C@H](C(=O)O)[C@@H]1CC(Cl)=NO1` [Acivicin (hydrochloride)], for which the “OC43 Inhibition rate” value is listed as 61.6%.
On the same count and under the same terms, for `C[C@@H]1CC[C@]2(C(=O)O[C@@H]3O[C@H](CO)[C@@H](O)[C@H](O)[C@H]3O)CC[C@]3(C)C(=CC[C@@H]4[C@@]5(C)C[C@@H](O)[C@H](O)[C@@](C)(CO)[C@@H]5CC[C@]43C)[C@@H]2[C@]1(C)O` [Niga-ichigoside F1] the value was -0.1%.
On to `N[C@H]1C(O)O[C@H](CO)[C@@H](O)[C@@H]1O` (some centres unmarked) [Glucosamine], for which the “OC43 Inhibition rate” value (OC43 Inhibition rate, 24 h) is on record as -0.3%.
Consider `C[C@H](CC(=O)C[C@@H](C)[C@H]1C[C@H](O)[C@@]2(C)C3=C(C(=O)C[C@]12C)[C@@]1(C)CCC(=O)C(C)(C)[C@@H]1C[C@@H]3O)C(=O)O` [Ganoderic acid A], for which the “OC43 Inhibition rate” value turned out to be 1.1%.
Still for that read-out and setting: the figure for `CC1=C[C@H]2c3c(O)cc(-c4cc5ccc(O)cc5o4)cc3O[C@@]3(c4ccc(O)cc4O)Oc4cc(O)ccc4[C@H](C1)[C@@H]23` [Mulberrofuran G] is 0.3%.
On the same count and under the same terms, the figure for `O=C1OCc2ccccc21` [Phthalide] is -0.1%; for `O=c1ccn([C@@H]2O[C@H](CO)[C@@H](O)[C@H]2O)c(=O)[nH]1` [Uridine] it is -0.2%.
Take `O=C(O)Cc1cc(O)ccc1O[C@@H]1O[C@H](CO)[C@@H](O)[C@H](O)[C@H]1O` [Phaseoloidin]: the “OC43 Inhibition rate” value is given as -1.3%.
